From article PMC8492312

T1: lipin 1-BirA* (lipin 1 fused to the BirA* biotin ligase) (UniProt Q91ZP3)
T1 sequence: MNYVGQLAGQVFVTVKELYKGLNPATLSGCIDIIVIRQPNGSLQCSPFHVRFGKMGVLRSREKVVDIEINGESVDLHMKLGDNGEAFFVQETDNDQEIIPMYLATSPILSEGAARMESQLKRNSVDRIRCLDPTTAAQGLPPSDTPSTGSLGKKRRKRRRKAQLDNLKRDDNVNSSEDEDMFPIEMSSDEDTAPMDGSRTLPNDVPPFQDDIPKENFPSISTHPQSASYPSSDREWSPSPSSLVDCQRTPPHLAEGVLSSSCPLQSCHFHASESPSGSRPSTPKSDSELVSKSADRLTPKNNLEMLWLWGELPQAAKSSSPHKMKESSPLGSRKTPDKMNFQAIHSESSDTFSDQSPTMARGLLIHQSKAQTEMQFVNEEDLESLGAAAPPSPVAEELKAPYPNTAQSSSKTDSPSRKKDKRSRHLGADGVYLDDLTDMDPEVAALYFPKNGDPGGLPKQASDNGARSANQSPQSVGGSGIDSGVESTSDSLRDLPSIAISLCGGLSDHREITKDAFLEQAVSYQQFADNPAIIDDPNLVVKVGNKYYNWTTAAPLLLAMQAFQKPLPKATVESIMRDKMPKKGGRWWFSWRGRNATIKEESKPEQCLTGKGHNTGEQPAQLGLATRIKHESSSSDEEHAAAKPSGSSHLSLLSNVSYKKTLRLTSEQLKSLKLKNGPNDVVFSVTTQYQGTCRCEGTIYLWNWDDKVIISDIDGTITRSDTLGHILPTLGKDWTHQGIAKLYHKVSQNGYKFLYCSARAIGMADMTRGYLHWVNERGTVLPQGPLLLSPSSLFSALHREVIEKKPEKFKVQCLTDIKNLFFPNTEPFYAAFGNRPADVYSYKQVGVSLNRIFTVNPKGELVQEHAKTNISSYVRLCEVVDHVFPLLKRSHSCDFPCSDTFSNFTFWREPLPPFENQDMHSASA

B1: lipin 2 (protein, UniProt Q99PI5 1-893)
chain: MNYVGQLAGQVLVTVKELYKGINQATLSGCIDVVVVRQQDGSYQCSPFHVRFGKLGVLRSKEKVIDIEINGSAVDLHMKLGDNGEAFFVEETEEEYEKLPAYLATSPIPTEDQFFKHIETPLVKSSGNERPAQSSDVSHTLESEAVFTQSSVKKKKRRRKKCKQDNRKEEQAASPVAEDVGDVGVSSDDEKRAQAARGSSNASLKEEDYKEPSLFHSGDNYPLSDGDWSPLETTYPQAVCPKSDSELEVKPSESLLRSEPHMEWTWGGFPESTKVTKRERYDYHPRTATITPSENTHFRVIPSEDSLIREVEKDATVEDTTCTIVKPKPRALCKQLSDAASTELPESPLEAPQISSLLDADPVPSPSAEAPSEPKPAAKDSPTKKKGVHKRSQHQGPDDIYLDDLKALEPEVAALYFPKSDTDPGSRQWPESDTFSGSQSPQSVGSAAADSGTECLSDSAMDLPDVTLSLCGGLSENGEISKEKFMEHIITYHEFAENPGLIDNPNLVIRIYNRYYNWALAAPMILSLQVFQKSLPKATVESWVKDKMPKKSGRWWFWRKKESMIKQLPETKEGKSEVPPANDLPSNAEEPTSARPAENDTSSDEGSQELEESIKVDPITVETLSHCGTASYKKSLRLSSDQIAKLKLHDGPNDVVFSITTQYQGTCRCAGTIYLWNWNDKVIISDIDGTITKSDALGQILPQLGKDWTHQGIARLYHSINENGYKFLYCSARAIGMADMTRGYLHWVNDKGTILPRGPLMLSPSSLFSAFHREVIEKKPEKFKIECLNDIKNLFAPSRQPFYAAFGNRPNDVYAYTQVGVPDCRIFTVNPKGELIQERTKGNKSSYHRLSELVEHVFPLLSKEQNSAFPCPEFSSFCYWRDPIPDLDLDDLA
B2: lipin 3 (protein, UniProt Q99PI4 1-848)
chain: MNYVGQLAETVFGTVKELYRGLNPATLSGGIDVLVVRQRDGSFRCSPFHVRFGKLGVLRSREKVVDIEINGEPVDLHMKLGDSGEAFFVQELDSDEEDVPPRLCTSPIPWGGLSGFPSDSQIGTASEPEGLVITGRRKRRRRRKPRRREEDAVDSSSEELEAGAESELTLLEKPTPESPSAQEAEEPSSQPKDIHPYSDGECTPQANLSSGDLMSPKSDSELELRSLEPSPLRAESHMQWVWGRLPKVAKAERPEFSLILESMAEAICALPEEPSPSSSPSEAGVDTLSPPVLHPGVRADTFHPAVEAHCEETAVDSPLAAPESKETKTQNSRGAGHPPATKSWSWTTPESHTPSGHPQVSRGKGSLKRNQHLGPSDIYLDDLPSLDSENVALYFPKSEYGMGARRWSEPSNQKLLESPNPEHIAECTLDSVDKIELSLCGGLADNRDISLEKFTQHMVSYEDLTKNPGLLDDPNLVVKINEKHYNWAVAAPMILSLQAFQKNLPESTVDKLEKEKMPRKGGRWWFSWRRRDFPAEEHSSQREKAATRKQQGEKTEVLSSDDDVPDSPVILEVPPLPSSTPGYVPTYKKSLRLSSDQIRCLNLNEGANDVVFSVTTQYQGTCRCKATIYLWNWDDKVVISDIDGTITKSDALGHILPQLGKDWTHQGITSLYHKIHLNGYKFLYCSARAIGMADLTKGYLQWVSEHGCGLPKGPILLSPSSLFSALHREVIEKKPEVFKVACLSDIQQLFLPQRQPFHAAFGNRPNDVFAYRQVGLPESRIFTVNPRGELIQELIKSHKSTYQRLGEVVELLFPPVVRGPSTDLASPEYSNLSYWRKPLPYVDFEALA
B3: SPF45 (protein, UniProt Q8JZX4 1-405)
chain: MSLYDDLGVETSDSKTEGWSKNFKLLQSQLQVKKAALTQAKSQRTKQSTVLAPVIDLKRGGSSDDRQIADTPPHVAAGLKDPVPSGFSAGEVLIPLADEYDPMFPNDYEKVVKRQREERQRQRELERQKEIEEREKRRKDRHEASGFSRRPDPDSDEDEDYERERRKRSMGGAAIAPPTSLVEKDKELPRDFPYEEDSRPRSQSSKAAIPPPVYEEPDRPRSPTGPSNSFLANMGGTVAHKIMQKYGFREGQGLGKHEQGLSTALSVEKTSKRGGKIIVGDATEKGEAQDASKKSDSNPLTEILKCPTKVVLLRNMVGAGEVDEDLEVETKEECEKYGKVGKCVIFEIPGAPDDEAVRIFLEFERVESAIKAVVDLNGRYFGGRVVKACFYNLDKFRVLDLAEQV
B4: U2AF1 (protein, UniProt Q9D883 1-239)
chain: MAEYLASIFGTEKDKVNCSFYFKIGACRHGDRCSRLHNKPTFSQTIALLNIYRNPQNSSQSADGLRCAVSDVEMQEHYDEFFEEVFTEMEEKYGEVEEMNVCDNLGDHLVGNVYVKFRREEDAEKAVIDLNNRWFNGQPIHAELSPVTDFREACCRQYEMGECTRGGFCNFMHLKPISRELRRELYGRRRKKHRSRSRSRERRSRSRDRGRGGGGGGGGGGGRERDRRRSRDRERSGRF

Target: T1, lipin 1-BirA* (lipin 1 fused to the BirA* biotin ligase)
Test: proximity labelling; lipin 1-BirA* in Hepa1-6 cells with biotin; streptavidin pull-down followed by immunoblot for the partner; negative control for endogenously biotinylated proteins

binding, binds:
B1
B2
B3
B4

Target: T1, lipin 1-BirA* (lipin 1 fused to the BirA* biotin ligase)
Test: proximity labelling; BioID: lipin 1-BirA* expressed in Hepa1-6 cells, 100 uM biotin for 24 hours, biotinylated proteins captured on streptavidin beads and identified by mass spectrometry; hits with at least 2 unique peptides, peptide-level FDR below 5%, endogenously biotinylated proteins removed

binding, binds:
B1
B2

Results are given in words; binding and its absence hold for the method and conditions named. In cells and extracts the contact can be indirect. These calls come from enrichment with a bait or labelling near it, and not all partners need be listed. Tags and fused reporters may be left off the sequences shown.
